No constants are given. Whether binding was seen depends on the method and setting. Some binding calls cover weakened binding; strength is not graded here.
Key:
[1] = molecular target: GOLIATH (RNF130) on human cells (human) (UniProt Q86XS8); assay: flow cytometry, human PBMC gated on CD8+ T cells, streptavidin tetramerized GOLIATH nanobody (legend paragraph 56; the panel title prints GRAIL); unstimulated, CD3 or CD3+CD28 stimulated; controls SA647+SA and blocked
[2] = molecular target: GOLIATH (RNF130) on human cells (human) (UniProt Q86XS8); assay: flow cytometry, human PBMC gated on B cells [CD3- CD14- CD19+] (title on the sheet and legend paragraph 58), streptavidin tetramerized nanobody; unstimulated, CD3 or CD3+CD28 stimulated; controls SA647+SA and blocked
[3] = molecular target: GOLIATH (RNF130) on human cells (human) (UniProt Q86XS8); assay: flow cytometry, human PBMC gated on B cells [CD3- CD14- CD19+], streptavidin tetramerized nanobody; unstimulated, CD3 or CD3+CD28 stimulated; controls SA647+SA and blocked
[4] = molecular target: T1, extracellular domain (ECD) of human GOLIATH (RNF130) (human) (UniProt Q86XS8); assay: SPR (Biacore), ligand hRNF130 ECD (GOLIATH), nanobody as analyte [CONT. 3]
T1 sequence (looked up): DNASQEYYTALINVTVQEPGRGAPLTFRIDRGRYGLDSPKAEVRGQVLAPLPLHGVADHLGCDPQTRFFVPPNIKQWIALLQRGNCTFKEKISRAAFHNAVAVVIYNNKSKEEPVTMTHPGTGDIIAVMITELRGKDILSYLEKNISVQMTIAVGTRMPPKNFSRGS

[5] = molecular target: GOLIATH (RNF130) on human cells (human) (UniProt Q86XS8); assay: flow cytometry, human PBMC gated on CD4+ T cells, streptavidin tetramerized nanobody; unstimulated, CD3 or CD3+CD28 stimulated; controls SA647+SA and blocked
[6] = molecular target: GOLIATH (RNF130) on human cells (human) (UniProt Q86XS8); assay: flow cytometry, human PBMC gated on NK cells [CD3- CD14- CD56+], streptavidin tetramerized nanobody; unstimulated, CD3 or CD3+CD28 stimulated; controls SA647+SA and blocked
[7] = molecular target: T2, extracellular domain (ECD) of human GRAIL (RNF128) (human) (UniProt Q8TEB7); assay: SPR (Biacore), ligand hRNF128 ECD (GRAIL), nanobody as analyte [CONT. 3]
T2 sequence (looked up): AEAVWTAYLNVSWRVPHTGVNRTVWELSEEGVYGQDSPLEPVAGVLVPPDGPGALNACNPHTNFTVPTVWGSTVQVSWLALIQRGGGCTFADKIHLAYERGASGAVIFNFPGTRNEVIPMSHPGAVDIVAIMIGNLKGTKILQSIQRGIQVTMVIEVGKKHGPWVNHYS

[8] = molecular target: T2, extracellular domain (ECD) of human GRAIL (RNF128) (human); assay: SPR (Biacore), ligand hRNF128 ECD (GRAIL), nanobody as analyte
hRNF43 ECD = molecular target: T3, hRNF43 ECD; assay: SPR (Biacore), ligand hRNF43 ECD, nanobody as analyte
T3 sequence: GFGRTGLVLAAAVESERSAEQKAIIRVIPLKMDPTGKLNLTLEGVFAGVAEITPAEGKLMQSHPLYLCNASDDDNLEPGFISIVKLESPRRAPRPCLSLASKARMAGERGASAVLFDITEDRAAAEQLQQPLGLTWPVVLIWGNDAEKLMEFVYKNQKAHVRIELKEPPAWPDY

mRNF43 ECD = molecular target: T4, mRNF43 ECD; assay: SPR (Biacore), ligand mRNF43 ECD, nanobody as analyte
T4 sequence: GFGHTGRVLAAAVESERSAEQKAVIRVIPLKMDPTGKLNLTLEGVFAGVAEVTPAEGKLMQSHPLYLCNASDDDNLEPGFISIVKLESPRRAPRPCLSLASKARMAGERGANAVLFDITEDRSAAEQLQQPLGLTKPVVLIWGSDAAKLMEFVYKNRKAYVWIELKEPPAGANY

mZNRF3 ECD = assay: SPR (Biacore), ligand mZNRF3 ECD, nanobody as analyte
hZNRF3 ECD = assay: SPR (Biacore), ligand hZNRF3 ECD, nanobody as analyte

B1: GOLIATH (RNF130) VHH of SEQ ID NO: 8 (VHH)
VHH: QVQLQESGGGLVQAGGSLRLSCAASGTISFIGYMGWYRQAPGKERELVASIASGTSTYYADSVKGRFTISRDNAKNTVYLQMNSLKPEDTAVYYCAATQYIQDAHRYWGQGTQVTVSS
- binding [1]: binds
- binding [2]: binds
- binding [3]: binds
- binding [4]: binds
- binding [5]: binds
- binding [6]: binds
- binding [7]: binds

B2: GRAIL (RNF128) VHH of SEQ ID NO: 1 (VHH)
VHH: QVQLQESGGGLVQAGGSLRLSCAASGYIFYGVHMGWYRQAPGKEREFVAAIDLGTTTYYADSVKGRFTISRDNAKNTVYLQMNSLKPEDTAVYYCAVYFDGLTNLPYWGQGTQVTVSS
- binding [8]: binds

B3: RNF43 VHH of SEQ ID NO: 10 (VHH)
VHH: QVQLQESGGGLVQAGGSLRLSCAASGTIFDDLLMGWYRQAPGKERELVAAIGAGATTNYADSVKGRFTISRDNAKNTVYLQMNSLKPEDTAVYYCAAWWLYYKGDWALYLYWGQGTQVTVSS
- binding (hRNF43 ECD): binds

B4: RNF43 VHH of SEQ ID NO: 12 (VHH)
VHH: QVQLQESGGGLVQAGGSLRLSCAASGSIFWKPVMGWYRQAPGKEREFVAAITSGTNTYYADSVKGRFTISRDNAKNTVYLQMNSLKPEDTAVYYCAVDDYDVVEYPYWGQGTQVTVSS
- binding (hRNF43 ECD): binds
- binding (mRNF43 ECD): binds

B5: ZNRF3 VHH of SEQ ID NO: 13 (VHH)
VHH: QVQLQESGGGLVQAGGSLRLSCAASGTIFYTLFMGWYRQAPGKEREFVAGIGRGGITYYADSVKGRFTISRDNAKNTVYLQMNSLKPEDTAVYYCAVWYDFLHSDSQAYSYWGQGTQVTVSS
- binding (mZNRF3 ECD): binds
- binding (hZNRF3 ECD): binds

Reference: patent publication US20240239891A1
